Our source for the survivor count and T/C values is PubChem BioAssay AID248 (DTP/NCI, 2004).

Each structure is given as a SMILES string. The list is a part of this screen's results and no random one: it is rich in T/C values a quarter to a half above the control, in often repeated tests (any T/C) and in doses without a T/C. Further doses and runs are listed elsewhere. T/C: endpoint of the treated group in % of that of the vehicle group. Some doses have a count of surviving animals in place of a T/C: the source files T/C as zero there, which appears to mark a toxic dose or a test without result, not a measured value. Some doses without a T/C left all or most animals alive at the check, yet need not have been tolerated: the source hardly ever lists a survival T/C far under the control, and the zero likely stands for such cases as well. Counts of survivors are from the toxicity check (mostly the fifth day) where no day follows; animals may have died later. Schedules are NCI's codes, taken here to give the interval after Q, in days (D) or hours (H), and the number of doses after X. For survival time, the PubChem record calls one and a half times the control and up active, and a quarter to a half above the control has no call in these data; cut-offs in other NCI protocols can differ.

This test relates to L1210 leukemia ip in BDF1 mice, survival T/C. In words: NCI In Vivo Anticancer Drug Screen. Data for tumor model L1210 Leukemia (intraperitoneal) in B6D2F1 (BDF1) mice. As to conditions: T/C endpoint: mean survival time, higher T/C = longer survival.
The mark [1] stands for this setting: dose: 25.0 mg/kg/injection, schedule: Q04DX003 (ip), vehicle: saline.
The mark [2] stands for this setting: dose: 400.0 mg/kg/injection, schedule: Q01DX001 (ip), vehicle: saline.

Consider `O=C1C=CC(=O)c2cc(Cl)c(Cl)cc21`, for which the survivor count runs as follows: (dose: 12.5 mg/kg/injection, schedule: Q01DX009 (ip), vehicle: saline) 4 of 6; under setting [1], 1 of 6; (dose: 50.0 mg/kg/injection, schedule: Q01DX001 (ip), vehicle: saline) 0 of 6; (dose: 100.0 mg/kg/injection, schedule: Q01DX001 (ip), vehicle: saline) 0 of 6; (dose: 200.0 mg/kg/injection, schedule: Q01DX001 (ip), vehicle: saline) 0 of 6; under setting [2], 0 of 6.

`CSC(C#N)S(C)(=O)=O` (stereo unspecified): the survivor count runs as follows: (dose: 200.0 mg/kg/injection, schedule: Q01DX001 (ip), vehicle: Klucel (hydroxypropylcellulose) (HPC)) 0 of 3; (dose: 400.0 mg/kg/injection, schedule: Q01DX001 (ip), vehicle: Klucel (hydroxypropylcellulose) (HPC)) 0 of 3.

For `Nc1nc(N)c2c(Cl)c(CNc3ccc(Cl)c(Cl)c3)ccc2n1`, the T/C (dose: 6.25 mg/kg/injection, schedule: Q01DX009 (ip), vehicle: saline with Tween-80) was 127 % of control; the T/C (dose: 12.5 mg/kg/injection, schedule: Q01DX009 (ip), vehicle: water) was 141 % of control; the T/C (dose: 25.0 mg/kg/injection, schedule: Q01DX009 (ip), vehicle: saline with Tween-80) is 140 % of control; the T/C (dose: 25.0 mg/kg/injection, schedule: Q01DX009 (ip), vehicle: water) was 129 % of control; the T/C (dose: 100.0 mg/kg/injection, schedule: Q04DX003 (ip), vehicle: water) was 147 % of control; the T/C (dose: 400.0 mg/kg/injection, schedule: Q04DX003 (ip), vehicle: water) is 147 % of control. Further, the survivor count runs as follows: (dose: 100.0 mg/kg/injection, schedule: Q01DX009 (ip), vehicle: water) 6 of 6; (dose: 200.0 mg/kg/injection, schedule: Q01DX009 (ip), vehicle: water) 6 of 6; (dose: 400.0 mg/kg/injection, schedule: Q01DX009 (ip), vehicle: water) 4 of 6.

On to `CCOc1ccc(/C=C2\C=Nc3ccccc32)cc1`, for which, where the note is “dose: 400.0 mg/kg/injection, schedule: Q01DX009 (ip), vehicle: Klucel (hydroxypropylcellulose) (HPC)”, the survivor count is recorded as 6 of 6.

With `COC(=O)[C@H]1[C@H]2C[C@@H]3c4[nH]c5ccccc5c4CCN3C[C@H]2C[C@@H](OC(=O)c2cc(OC)c(OC)c(OC)c2)[C@@H]1OC`, the survivor count (dose: 3.75 mg/kg/injection, schedule: Q01DX009 (ip), vehicle: Klucel (hydroxypropylcellulose) (HPC)) is given as 5 of 6.

For the compound `COc1ccc(C(O)c2c(CN(C)C)c3ccccc3n2C)cc1` (stereo unspecified), the survivor count (dose: 200.0 mg/kg/injection, schedule: Q04DX002 (ip), vehicle: other) is recorded as 1 of 3 and the survivor count (dose: 400.0 mg/kg/injection, schedule: Q04DX002 (ip), vehicle: other) is listed as 0 of 3.

As to `CN=C(N)N(C)/N=C/c1ccccc1`, the survivor count was 0 of 6 (dose: 175.0 mg/kg/injection, schedule: Q04DX003 (ip), vehicle: Klucel (hydroxypropylcellulose) (HPC)) and 0 of 6 (dose: 350.0 mg/kg/injection, schedule: Q04DX003 (ip), vehicle: Klucel (hydroxypropylcellulose) (HPC)).

For `ClC1=CCCCC1`, the survivor count (dose: 150.0 mg/kg/injection, schedule: Q01DX009 (ip), vehicle: saline with Tween-80) is recorded as 1 of 6; the survivor count (dose: 225.0 mg/kg/injection, schedule: Q01DX009 (ip), vehicle: saline with Tween-80) is 0 of 6; the survivor count (dose: 335.0 mg/kg/injection, schedule: Q01DX009 (ip), vehicle: saline with Tween-80) was 1 of 6.

For `C(/C=C/C=C/N1CCCCC1)=[N+]1CCCCC1`, the survivor count was 0 of 6 (dose: 1.56 mg/kg/injection, schedule: Q04DX003 (ip), vehicle: saline); 4 of 6 (dose: 3.13 mg/kg/injection, schedule: Q04DX003 (ip), vehicle: saline); 0 of 6 (dose: 6.25 mg/kg/injection, schedule: Q04DX003 (ip), vehicle: saline); 0 of 6 (dose: 12.5 mg/kg/injection, schedule: Q04DX003 (ip), vehicle: saline); 0 of 6 under setting [1]; 0 of 6 (dose: 50.0 mg/kg/injection, schedule: Q04DX003 (ip), vehicle: saline). Also, the survivor count (dose: 100.0 mg/kg/injection, schedule: Q04DX003 (ip), vehicle: saline) is recorded as 0 of 6; the survivor count (dose: 200.0 mg/kg/injection, schedule: Q04DX003 (ip), vehicle: saline) is given as 0 of 6; the survivor count (dose: 400.0 mg/kg/injection, schedule: Q04DX003 (ip), vehicle: saline) was 0 of 6.

As for `Cc1c(CBr)c(=O)[nH]c2ccccc12`, the survivor count under setting [2] is reported as 0 of 6.

Turning to `c1ccc([P+](c2ccccc2)(c2ccccc2)c2ccc(-c3ccc([P+](c4ccccc4)(c4ccccc4)c4ccccc4)cc3)cc2)cc1`, the survivor count runs as follows: (dose: 6.0 mg/kg/injection, schedule: Q01DX009 (ip), vehicle: Klucel (hydroxypropylcellulose) (HPC)) 1 of 6; (dose: 12.0 mg/kg/injection, schedule: Q01DX009 (ip), vehicle: Klucel (hydroxypropylcellulose) (HPC)) 6 of 6; (dose: 25.0 mg/kg/injection, schedule: Q01DX009 (ip), vehicle: Klucel (hydroxypropylcellulose) (HPC)) 0 of 6; (dose: 50.0 mg/kg/injection, schedule: Q01DX009 (ip), vehicle: Klucel (hydroxypropylcellulose) (HPC)) 0 of 6; (dose: 100.0 mg/kg/injection, schedule: Q01DX009 (ip), vehicle: Klucel (hydroxypropylcellulose) (HPC)) 0 of 6; (dose: 200.0 mg/kg/injection, schedule: Q01DX009 (ip), vehicle: Klucel (hydroxypropylcellulose) (HPC)) 0 of 6. In addition, the survivor count (dose: 300.0 mg/kg/injection, schedule: Q01DX009 (ip), vehicle: Klucel (hydroxypropylcellulose) (HPC)) is 0 of 6.

Turning to `c1ccc(NNCC[P+](c2ccccc2)(c2ccccc2)c2ccccc2)cc1`, the survivor count (dose: 30.0 mg/kg/injection, schedule: Q01DX001 (ip), vehicle: carboxymethylcellulose (CMC)) is listed as 2 of 6; the survivor count (dose: 60.0 mg/kg/injection, schedule: Q01DX001 (ip), vehicle: carboxymethylcellulose (CMC)) is recorded as 0 of 6; the survivor count (dose: 75.0 mg/kg/injection, schedule: Q01DX001 (ip), vehicle: carboxymethylcellulose (CMC)) is on record as 0 of 6; the survivor count (dose: 150.0 mg/kg/injection, schedule: Q01DX001 (ip), vehicle: carboxymethylcellulose (CMC)) is given as 0 of 6; the survivor count (dose: 300.0 mg/kg/injection, schedule: Q01DX001 (ip), vehicle: carboxymethylcellulose (CMC)) is listed as 0 of 6.

As for `O=C(Nc1ccc(Cl)cc1[N+](=O)[O-])Oc1ccccc1C(=O)Nc1ccccc1`, the survivor count (dose: 200.0 mg/kg/injection, schedule: Q01DX009 (ip), vehicle: saline with Tween-80) is 3 of 3.

As for `CCN(C)CCC(C=O)(c1cccc2ccccc12)C(C)C` (stereo unspecified), the survivor count is reported as 2 of 3 (dose: 200.0 mg/kg/injection, schedule: Q04DX002 (ip), vehicle: saline) and 0 of 3 (dose: 400.0 mg/kg/injection, schedule: Q04DX002 (ip), vehicle: saline).
